# About 5,500 (1.4%) of roughly 400,000 compounds were called active. Inconclusive results, whose numbers are uncertain, are shown with a selection of clear calls. Calls follow the shape of the dose curve; as a rule, active = well fitted cell-killing curve with a large enough effect; inconclusive = small, poorly fitted or top-dose-only effect, or effect the other way; inactive = flat fitted curve, though single readings scatter. A potency beside an inconclusive call is a rough fit, not a confirmed value.
# Assay: qHTS assay for MDR1-selective chemotherapeutics: Primary screen using the parental adenocarcinoma cell KB-3-1; also: nearly all actives have a fitted effect of over 60% in size
# Conditions: KB-3-1 viability, CellTiter-Glo ATP luminescence, 72 h; activity change, negative = cytotoxic: at 46.1 µM (top of the series)
# In short: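 Luminescent ATP read-out (CellTiter-Glo) measures survival of drug-naive KB-3-1 cells after 72 h compound exposure at 37 °C. Titration series was screened from lowest to highest concentration, with DMSO vehicle plates as background controls.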
# % is scaled to controls: 0 for no effect and ±100 for the full control effect; potency is read from the fitted curve at half-maximal effect.
SMILES,Potency,"activity change, negative = cytotoxic"
CC(C)c1ccccc1OCCNC(=O)c1cncc(Br)c1,"inconclusive: 18.4 µM [cytotoxic, single point]",–
COc1ccc(-c2nc(N)ncc2-c2ccccc2)c(O)c1,inactive,–
Clc1ccc(-c2cn(-c3ccc(Cl)cc3)c3[n+]2CCCCC3)cc1,"inconclusive: 29.1 µM [cytotoxic, single point]",–
COc1ccc(N2CCN(C(=O)Cc3c(C(=O)O)c(C)cn3C)CC2)cc1,inactive,–
O=C(CSc1nc(-c2ccccc2)c(-c2ccccc2)[nH]1)NCc1ccco1,"inconclusive: 14.6 µM [cytotoxic, partial curve, poor fit]",–
CC1Cc2ccccc2N1C(=O)CSc1nnnn1C (stereo not given),inactive,–
CCC(=O)N1CCc2cc(Br)cc(S(=O)(=O)NCCc3ccccc3Cl)c21,inactive,–
Cc1cccnc1C(c1ccc(F)cc1)N(C)C(=O)C1CCN(CCOc2ccc(Cl)cc2Cl)CC1 (stereo not given),"inconclusive: 29.1 µM [cytotoxic, single point]",–
O=C(COc1ccc(Cl)cc1Br)Nc1ccccc1N1CCCC1,"inconclusive: 29.1 µM [cytotoxic, single point]",–
O=C1c2c(-c3ccc(Br)cc3)noc2CCN1Cc1cn(-c2ccc(Cl)cc2)nn1,active: 20.6 µM,–
Cc1ccc(-c2c(C(=O)N3CCN(c4cccc(C)c4C)CC3)oc(=O)c3ccccc23)cc1,inactive,–
CCOC(=O)[C@]12CCCC=C1N(CCC1=CCCCC1)C(=O)[C@H](CC(=O)NCc1ccc(OC)c(OC)c1)C2,inactive,–
O=C(NCCN1CCN(c2ccc([N+](=O)[O-])cc2)CC1)NCc1ccccc1,"inconclusive: 20.6 µM [cytotoxic, partial curve, poor fit]",–
C[C@H]1CN([C@@H](C)CO)C(=O)CCCn2cc(nn2)CO[C@@H]1CN(C)C(=O)Nc1ccccc1F,"inconclusive: 0.0231 µM [rising, full curve]",–
C=CCn1c(=O)c2ccc(C(=O)NCc3ccccc3)cc2n(Cc2cccc(Cl)c2)c1=O,"inconclusive: 2.91 µM [cytotoxic, full curve]",–
CC12CCC(O)CC1=CCC1C2CCC2(C)C1CCC21CCC(=O)O1 (stereo not given),"inconclusive: 29.1 µM [cytotoxic, single point]",–
CCn1c(=O)c([N+](=O)[O-])c(Cl)c2ccccc21,"inconclusive: 29.1 µM [cytotoxic, single point]",–
Cc1cccc2cc3c(N)c(C#N)sc3nc12,"inconclusive: 3.66 µM [cytotoxic, full curve]",–
O=C(Nc1cccn(Cc2c(Cl)cccc2Cl)c1=O)c1ccc(Cl)cc1,"inconclusive: 3.66 µM [cytotoxic, full curve]",–
COc1cc2c(C(=O)N3CCN(c4ccccc4C)CC3)c(C)oc2cc1Br,"inconclusive: 29.1 µM [cytotoxic, single point]",–
Cc1cc(C)n(CC2CC(=O)N(c3ccc(Cl)cc3)C2=O)n1 (stereo not given),–,inconclusive: -20.3%
Cc1ccccc1C(=O)N1CCC(C(=O)Nc2ccc(S(=O)(=O)N(C)C(C)C)cc2)CC1,"inconclusive: 23.1 µM [cytotoxic, single point]",–

# As entered above:
# Value for `CC(C)c1ccccc1OCCNC(=O)c1cncc(Br)c1` under Potency: inconclusive: 18.4 µM [cytotoxic, single point]
# Value for `Cc1ccccc1C(=O)N1CCC(C(=O)Nc2ccc(S(=O)(=O)N(C)C(C)C)cc2)CC1` under Potency: inconclusive: 23.1 µM [cytotoxic, single point]
# Value for `O=C1c2c(-c3ccc(Br)cc3)noc2CCN1Cc1cn(-c2ccc(Cl)cc2)nn1` under Potency: active: 20.6 µM
# Value for `O=C(CSc1nc(-c2ccccc2)c(-c2ccccc2)[nH]1)NCc1ccco1` under Potency: inconclusive: 14.6 µM [cytotoxic, partial curve, poor fit]

# Next records:

SMILES,Potency,"activity change, negative = cytotoxic"
CCOc1ccc(NC(=O)CNC(=O)c2ccc(OC)cc2)cc1,"inconclusive: 18.4 µM [rising, partial curve, poor fit]",–
Cc1ccc(S(=O)(=O)CC(=O)Nc2ccccn2)cc1,inactive,–
Cc1nn(C)c(C)c1CNC(=O)c1nn2c(c1Cl)NC(c1cccs1)CC2C(F)(F)F (stereo not given),"inconclusive: 23.1 µM [cytotoxic, single point]",–
O=CNc1ccc2c(c1)Cc1cccc(NC=O)c1-2,"inconclusive: 29.1 µM [cytotoxic, single point]",–
Cc1ccc(NS(=O)(=O)c2ccc(-n3cccn3)cc2)c(Br)c1,"inconclusive: 29.1 µM [cytotoxic, single point]",inconclusive: -30.6% [cytotoxic]
CC(=O)n1cc([C@@H]2C=C(C(=O)Nc3ccccc3)O[C@H](OCc3ccc(CO)cc3)C2)c2ccccc21,"inconclusive: 18.4 µM [cytotoxic, single point]",–
COc1cc2c(cc1OC)C(COc1cc(C)cc(C)c1)N(C(=O)C(C)(C)C)CC2 (stereo not given),inactive,–
Clc1ccccc1-c1nc2ccccc2c2nc3ccccc3n12,"inconclusive: 16.4 µM [cytotoxic, single point]",–
CCCCCCOC(=O)C(C#N)c1nc2ccccc2nc1N1CCN(CC)CC1 (stereo not given),"inconclusive: 20.6 µM [cytotoxic, single point]",–
O=C(NCC1CCCCC1)C1(CC2CC(c3cccc(Br)c3)=NO2)CCNCC1 (stereo not given),"inconclusive: 29.1 µM [cytotoxic, single point]",–
CC(C)C(NS(=O)(=O)c1cccc2nsnc12)C(=O)Nc1nc2ccc(Cl)cc2s1 (stereo not given),"inconclusive: 29.1 µM [cytotoxic, single point]",–
COCCn1c(SCc2nc3scc(-c4ccc(Cl)cc4)c3c(=O)[nH]2)nnc1-c1cccc(C)c1,active: 20.6 µM,–
COc1cc2c(C(=O)N(C)c3cccc(C(F)(F)F)c3)cn(CC(C)C)c(=O)c2cc1OC,inactive,–
C[C@H](CO)N1C[C@H](C)[C@@H](CN(C)S(=O)(=O)c2ccc(F)cc2)Oc2ccc(NC(=O)Nc3ccc(C(F)(F)F)cc3)cc2C1=O,"inconclusive: 29.1 µM [cytotoxic, single point]",–
O=C(CSc1nc(N2CCCCC2)nc(N2CCCCC2)n1)N1CCN(c2ccccc2)CC1,"inconclusive: 29.1 µM [cytotoxic, single point]",–
COC(=O)c1ccc(C2N=C(c3cccs3)CC(c3ccccc3O)N2)cc1 (stereo not given),inactive,–
NC(=S)NN=C1c2ccccc2-c2cc(Br)ccc21,"inconclusive: 29.1 µM [cytotoxic, single point]",–
O=C1N=C(N2CCN(c3ccccc3)CC2)SC1Cc1ccccc1 (stereo not given),inactive,–
CC1(C)OC(=O)C2=C(C[C@@H](C3CCCCC3)O[C@H]2c2ccccc2)O1,"inconclusive: 29.1 µM [cytotoxic, single point]",–
S=C(NN=Cc1ccccn1)N(Cc1ccccn1)Cc1ccccn1,active: 6.51 µM,–
COc1ccc(N/N=C(/N=Nc2nc(C)cc(=O)[nH]2)c2ccccc2)cc1,active: 6.51 µM,–
O=C(CN1CCN(C(=S)NC2CCCC2)CC1)Nc1ccc(Oc2ccccc2)cc1,"inconclusive: 29.1 µM [cytotoxic, single point]",–

SMILES,Potency,"activity change, negative = cytotoxic"
CC(C)(C)C(=O)Nc1ccc2c(c1)OCCOCCOc1cc(NC(=O)C(C)(C)C)ccc1OCCOCCO2,"inconclusive: 29.1 µM [rising, single point]",–
C=CCn1c(CNC(=O)c2ccco2)nnc1SCC(=O)N1c2ccccc2Sc2ccccc21,"inconclusive: 20.6 µM [cytotoxic, single point]",–
CCCn1c(CN2CCN(C(=O)OCC)CC2)nc2cc([N+](=O)[O-])ccc21,inactive,–
O=C1NC[C@@H](CCCCN2C[C@H](Cc3ccccc3)N(CCC3CCCCC3)C(=O)C2=O)N(CC2CCCCC2)C1=O,inactive,–
COC(=O)[C@]1(CC(C)C)N[C@H](c2ccc(SC3CCCCC3)cc2)[C@@H]2C(=O)N(C)C(=O)[C@@H]21,"inconclusive: 18.4 µM [cytotoxic, single point]",–
Cc1ccc(S(=O)(=O)c2nc(-c3cccs3)oc2N2CCC(C)CC2)cc1,inactive,–
CN(Cc1cccc(Cl)c1Cl)C(=O)c1cccc(S(=O)(=O)N2CCN(Cc3ccccc3)CC2)c1,"inconclusive: 16.4 µM [cytotoxic, single point]",–
CC(C)c1ccccc1NC(=S)NN(Cc1ccccc1)c1ccccc1,"inconclusive: 18.4 µM [cytotoxic, partial curve]",–
CC1Nc2ncnc(N3CCN(c4ccccc4)CC3)c2N(Cc2ccc(Br)cc2)C1=O (stereo not given),"inconclusive: 2.06 µM [cytotoxic, partial curve, poor fit]",–
CCc1cc(-c2cnnn2Cc2ccc3ccccc3c2)ccc1-c1cn(CC(C)C)nn1,"inconclusive: 32.6 µM [cytotoxic, single point]",–
COc1cc(CN2CCC(C(=O)NCCC(C)C)CC2)ccc1OCc1ccccc1,"inconclusive: 11.6 µM [cytotoxic, partial curve]",–
Cc1cc(=O)[nH]c2c(C)cc(S(=O)(=O)N3CCCCC3)cc12,"inconclusive: 25.9 µM [cytotoxic, single point]",–
COc1ccc(N(C(C)C(=O)N2CCC(Cc3ccccc3)CC2)S(C)(=O)=O)cc1 (stereo not given),"inconclusive: 18.4 µM [cytotoxic, single point]",–
O=C(Nc1ccc(Br)c(C(F)(F)F)c1)c1ccc(C(F)(F)F)cc1,"inconclusive: 29.1 µM [cytotoxic, single point]",–
O=C(COc1ccccc1)Nc1cccc(-c2nc3cc4ccccc4cc3[nH]2)c1,"inconclusive: 29.1 µM [cytotoxic, single point]",–
O=S(=O)(c1cnccc1N1CCN(/N=C/c2ccc(Br)cc2)CC1)N1CCCCC1,"inconclusive: 32.6 µM [cytotoxic, partial curve, poor fit]",–
CN(C)c1ccc(-c2noc(C3CCN(S(=O)(=O)c4cccc(Cl)c4)CC3)n2)cc1,active: 16.4 µM,–
Cc1ccc(C(=O)NC(=S)Nc2ccccc2N2CCOCC2)cc1C,"inconclusive: 29.1 µM [cytotoxic, single point]",–
CCN(C1CCCCC1)S(=O)(=O)c1ccc(S(=O)(=O)N2CCN(CCC#N)CC2)cc1,inactive,–
COc1cccc(NC(=O)/C=C/c2ccc([N+](=O)[O-])cc2)c1,"inconclusive: 25.9 µM [cytotoxic, single point]",–

# — PubChem BioAssay AID1347075 (National Center for Advancing Translational Sciences (NCATS), 2019)
